PubChem BioAssay AID1259308 | NCATS, 2017
Test: 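Genes whose loss raises luciferase production in HEK293 cells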 (primary screen). System: human HEK293 embryonic kidney cells stably expressing firefly luciferase (HEK-CMV-Luc2-Hygro). Reagents: single siRNA against human genes, 0.8 pmol siRNA per well. Time to read-out: 72 h. Detection: 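Luciferase light (ONE-Glo) measured on one replicate plate set and viability (CellTiter-Glo) on the other, scaled to a negative control siRNA, with robust z-scores and luciferase per cell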. Reading the numbers: total luciferase, z-score: higher = more reporter protein produced. Rule for the call: 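Active when the median/MAD z-score for overall luciferase is greater than 3; a gene was taken forward for validation with new siRNAs if at least two of its three siRNAs passed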. Calls: active = raised luciferase; inactive = no rise.
The whole screen tested about 59,000 reagents; below is a part drawn at random. About 1,510 of them (2.6%) count as active. 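Calls use total luciferase alone and ignore viability, so some active siRNAs may act by altering cell number.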 Further read-outs or replicates are left out here.

total luciferase, z-score, by gene symbol and reagent
PTH (GeneID 5741): SID160715317 -0.915 inactive; SID160715319 0.162 inactive; SID160715320 0.293 inactive
PIP4K2B (GeneID 8396): SID160719955 -0.518 inactive; SID160719956 -0.112 inactive; SID160732003 0.482 inactive
BTNL8 (GeneID 79908): SID160731938 1.46 inactive; SID160749754 0.262 inactive; SID160749755 1.34 inactive
ZNF223 (GeneID 7766): SID160719296 0.463 inactive; SID160719299 2.36 inactive; SID160719300 -0.0984 inactive
SLITRK1 (GeneID 114798): SID160755004 -0.708 inactive; SID160755005 0.214 inactive; SID160755006 0.454 inactive
BAZ2B-AS1 (GeneID 643072): SID160768772 0.406 inactive; SID160768773 0.84 inactive; SID160768774 0.398 inactive
GPAT4 (GeneID 137964): SID160757549 0.531 inactive; SID160757550 -0.449 inactive; SID160757551 -0.373 inactive
CYP26B1 (GeneID 56603): SID160731560 0.619 inactive; SID160745065 2.17 inactive; SID160745066 0.212 inactive
ARHGDIG (GeneID 398): SID160719968 -0.972 inactive; SID160719978 -1.28 inactive; SID160719989 0.949 inactive
SLC35D4 (GeneID 85019): SID160753128 1.93 inactive; SID160753129 0.279 inactive; SID160753130 -1.04 inactive
MAPK8IP3 (GeneID 23162): SID160735590 1.32 inactive; SID160735591 2.16 inactive; SID160735592 0.384 inactive
UAP1L1 (GeneID 91373): SID160753959 2.81 inactive; SID160753960 1.47 inactive; SID160753961 1.02 inactive
GUCY2EP (GeneID 390226): SID160731182 0.0218 inactive; SID160766454 3.02 active; SID160766455 -0.929 inactive
RTN3 (GeneID 10313): SID160728143 -0.318 inactive; SID160728144 0.935 inactive; SID160728145 0.541 inactive
ID2 (GeneID 3398): SID160775519 0.0517 inactive; SID160775520 -0.893 inactive; SID160775521 2.79 inactive
LILRA6 (GeneID 79168): SID160748733 1.92 inactive; SID160748734 -0.701 inactive; SID160748735 -0.88 inactive
SLC35F5 (GeneID 80255): SID160750285 0.672 inactive; SID160750286 0.152 inactive; SID160750287 -0.256 inactive
ASCL1 (GeneID 429): SID160720611 1.39 inactive; SID160720622 0.702 inactive; SID160720633 -0.744 inactive
GRIP2 (GeneID 80852): SID160750625 -0.178 inactive; SID160750626 -0.663 inactive; SID160750627 -0.727 inactive

Hits, among the entries above:
total luciferase, z-score, by gene symbol and reagent
GUCY2EP (GeneID 390226): SID160766454 3.02 active
